Some of the results follow.
How the values were obtained:
Test in all cases: glycan array binding signal (z-score within array); higher = stronger binding
Conditions in all cases: glycan notation: IUPAC condensed, linker removed
[1] = target: Neu5Ac(a2-3)GalNAc
In short: (§1)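 The Consortium for Functional Glycomics database supplied 3228 glycan arrays, of which those lacking an available protein sequence were dropped. The binding signal, a within-array Z-score, was averaged across arrays of the same protein sequence and across linkers. Negative scores can be read as non-binding.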

[2] = target: Neu5Ac(a2-3)GalNAc(b1-4)GlcNAc
In short: as §1

[3] = target: Neu5Ac(a2-3)[GalNAc(b1-4)]Gal(b1-4)Glc
In short: as §1

[4] = target: Neu5Ac(a2-3)[GalNAc(b1-4)]Gal(b1-4)GlcNAc
In short: as §1

[5] = target: Neu5Ac(a2-3)[GalNAc(b1-4)]Gal(b1-4)GlcNAc(b1-3)GalNAc
In short: as §1

[6] = target: Neu5Ac(a2-3)[Neu5Ac(a2-6)]GalNAc
In short: as §1

[7] = target: Neu5Ac(a2-6)Gal
In short: as §1

[8] = target: Neu5Ac(a2-6)Gal(b1-3)GlcNAc(b1-3)[Gal(b1-4)GlcNAc(b1-6)]Gal(b1-4)Glc
In short: as §1

[9] = target: Neu5Ac(a2-6)Gal(b1-4)Glc
In short: as §1

[10] = target: Neu5Ac(a2-6)Gal(b1-4)GlcNAc
In short: as §1

[11] = target: Neu5Ac(a2-6)Gal(b1-4)GlcNAc(b1-2)Man
In short: as §1

[12] = target: Neu5Ac(a2-6)Gal(b1-4)GlcNAc(b1-2)Man(a1-3)Man(b1-4)GlcNAc(b1-4)GlcNAc
In short: as §1

[13] = target: Neu5Ac(a2-6)Gal(b1-4)GlcNAc(b1-2)Man(a1-3)[Gal(b1-4)GlcNAc(b1-2)Man(a1-6)]Man(b1-4)GlcNAc(b1-4)GlcNAc
In short: as §1

[14] = target: Neu5Ac(a2-6)Gal(b1-4)GlcNAc(b1-2)Man(a1-3)[GlcNAc(b1-2)Man(a1-6)]Man(b1-4)GlcNAc(b1-4)GlcNAc
In short: as §1

[15] = target: Neu5Ac(a2-6)Gal(b1-4)GlcNAc(b1-2)Man(a1-3)[GlcNAc(b1-4)][Neu5Ac(a2-6)Gal(b1-4)GlcNAc(b1-2)Man(a1-6)]Man(b1-4)GlcNAc(b1-4)GlcNAc
In short: as §1

[16] = target: Neu5Ac(a2-6)Gal(b1-4)GlcNAc(b1-2)Man(a1-3)[Man(a1-6)]Man(b1-4)GlcNAc(b1-4)GlcNAc
In short: as §1

[17] = target: Neu5Ac(a2-6)Gal(b1-4)GlcNAc(b1-2)Man(a1-3)[Neu5Ac(a2-3)Gal(b1-4)GlcNAc(b1-2)Man(a1-6)]Man(b1-4)GlcNAc(b1-4)GlcNAc
In short: as §1

[18] = target: Neu5Ac(a2-6)Gal(b1-4)GlcNAc(b1-2)Man(a1-3)[Neu5Ac(a2-6)Gal(b1-4)GlcNAc(b1-2)Man(a1-6)]Man(b1-4)GlcNAc(b1-4)GlcNAc
In short: as §1

[19] = target: Neu5Ac(a2-6)Gal(b1-4)GlcNAc(b1-2)Man(a1-3)[Neu5Ac(a2-6)Gal(b1-4)GlcNAc(b1-2)Man(a1-6)]Man(b1-4)GlcNAc(b1-4)[Fuc(a1-6)]GlcNAc
In short: as §1

[20] = target: Neu5Ac(a2-6)Gal(b1-4)GlcNAc(b1-2)Man(a1-6)Man(b1-4)GlcNAc(b1-4)GlcNAc
In short: as §1

[21] = target: Neu5Ac(a2-6)Gal(b1-4)GlcNAc(b1-2)Man(a1-6)[Gal(b1-4)GlcNAc(b1-2)Man(a1-3)]Man(b1-4)GlcNAc(b1-4)GlcNAc
In short: as §1

[22] = target: Neu5Ac(a2-6)Gal(b1-4)GlcNAc(b1-2)Man(a1-6)[GlcNAc(b1-2)Man(a1-3)]Man(b1-4)GlcNAc(b1-4)GlcNAc
In short: as §1

[23] = target: Neu5Ac(a2-6)Gal(b1-4)GlcNAc(b1-2)Man(a1-6)[Man(a1-3)]Man(b1-4)GlcNAc(b1-4)GlcNAc
In short: as §1

[24] = target: Neu5Ac(a2-6)Gal(b1-4)GlcNAc(b1-2)[Neu5Ac(a2-6)Gal(b1-4)GlcNAc(b1-4)]Man(a1-3)[GlcNAc(b1-4)][Neu5Ac(a2-6)Gal(b1-4)GlcNAc(b1-2)[Neu5Ac(a2-6)Gal(b1-4)GlcNAc(b1-6)]Man(a1-6)]Man(b1-4)GlcNAc(b1-4)GlcNAc
In short: as §1

[25] = target: Neu5Ac(a2-6)Gal(b1-4)GlcNAc(b1-2)[Neu5Ac(a2-6)Gal(b1-4)GlcNAc(b1-4)]Man(a1-3)[GlcNAc(b1-4)][Neu5Ac(a2-6)Gal(b1-4)GlcNAc(b1-4)Man(a1-6)]Man(b1-4)GlcNAc(b1-4)GlcNAc
In short: as §1

[26] = target: Neu5Ac(a2-6)Gal(b1-4)GlcNAc(b1-2)[Neu5Ac(a2-6)Gal(b1-4)GlcNAc(b1-6)]Man(a1-6)[Neu5Ac(a2-6)Gal(b1-4)GlcNAc(b1-2)Man(a1-3)][GlcNAc(b1-4)]Man(b1-4)GlcNAc(b1-4)GlcNAc
In short: as §1

[27] = target: Neu5Ac(a2-6)Gal(b1-4)GlcNAc(b1-3)Gal(b1-3)GlcNAc
In short: as §1

[28] = target: Neu5Ac(a2-6)Gal(b1-4)GlcNAc(b1-3)Gal(b1-4)GlcNAc
In short: as §1

[29] = target: Neu5Ac(a2-6)Gal(b1-4)GlcNAc(b1-3)Gal(b1-4)GlcNAc(b1-2)Man(a1-3)[Neu5Ac(a2-6)Gal(b1-4)GlcNAc(b1-3)Gal(b1-4)GlcNAc(b1-2)Man(a1-6)]GalNAc
In short: as §1

[30] = target: Neu5Ac(a2-6)Gal(b1-4)GlcNAc(b1-3)Gal(b1-4)GlcNAc(b1-3)Gal(b1-4)GlcNAc
In short: as §1

[31] = target: Neu5Ac(a2-6)Gal(b1-4)GlcNAc(b1-3)Gal(b1-4)GlcNAc(b1-3)Gal(b1-4)GlcNAc(b1-2)Man(a1-3)[Neu5Ac(a2-6)Gal(b1-4)GlcNAc(b1-3)Gal(b1-4)GlcNAc(b1-3)Gal(b1-4)GlcNAc(b1-2)Man(a1-6)]GalNAc
In short: as §1

[32] = target: Neu5Ac(a2-6)Gal(b1-4)GlcNAc(b1-3)Gal(b1-4)GlcNAc(b1-3)GalNAc
In short: as §1

[33] = target: Neu5Ac(a2-6)Gal(b1-4)GlcNAc(b1-3)Gal(b1-4)GlcNAc(b1-3)[Neu5Ac(a2-6)Gal(b1-4)GlcNAc(b1-3)Gal(b1-4)GlcNAc(b1-6)]GalNAc
In short: as §1

[34] = target: Neu5Ac(a2-6)Gal(b1-4)GlcNAc(b1-3)Gal(b1-4)GlcNAc(b1-6)[Gal(b1-3)]GalNAc
In short: as §1

[35] = target: Neu5Ac(a2-6)Gal(b1-4)GlcNAc(b1-3)Gal(b1-4)[Fuc(a1-3)]GlcNAc(b1-3)Gal(b1-4)[Fuc(a1-3)]GlcNAc
In short: as §1

[36] = target: Neu5Ac(a2-6)Gal(b1-4)GlcNAc(b1-3)GalNAc
In short: as §1

[37] = target: Neu5Ac(a2-6)Gal(b1-4)GlcNAc(b1-3)[Neu5Ac(a2-6)Gal(b1-4)GlcNAc(b1-6)]GalNAc
In short: as §1

B1: Clec18Av1 (Homo sapiens), A5D8T8 (protein)
chain: MLHPETSPGRGHLLAVLLALLGTAWAEVWPPQLQEQAPMAGALNRKESFLLLSLHNRLRSWVQPPAADMRRLDWSDSLAQLAQARAALCGTPTPSLASGLWRTLQVGWNMQLLPAGLVSFVEVVSLWFAEGQRYSHAAGECARNATCTHYTQLVWATSSQLGCGRHLCSAGQAAIEAFVCAYSPRGNWEVNGKTIVPYKKGAWCSLCTASVSGCFKAWDHAGGLCEVPRNPCRMSCQNHGRLNISTCHCHCPPGYTGRYCQVRCSLQCVHGRFREEECSCVCDIGYGGAQCATKVHFPFHTCDLRIDGDCFMVSSEADTYYRARMKCQRKGGVLAQIKSQKVQDILAFYLGRLETTNEVIDSDFETRNFWIGLTYKTAKDSFRWATGEHQAFTSFAFGQPDNHGFGNCVELQASAAFNWNDQRCKTRNRYICQFAQEHISRWGPGS
glycan array binding signal (z-score) [1]: -0.846 | glycan array binding signal (z-score) [2]: -0.813 | glycan array binding signal (z-score) [3]: 2.19 | glycan array binding signal (z-score) [4]: -0.355 | glycan array binding signal (z-score) [5]: 2.69 | glycan array binding signal (z-score) [6]: -0.853 | glycan array binding signal (z-score) [7]: 1.19 | glycan array binding signal (z-score) [8]: -0.018 | glycan array binding signal (z-score) [9]: -0.776 | glycan array binding signal (z-score) [10]: -0.105 | glycan array binding signal (z-score) [11]: -0.821 | glycan array binding signal (z-score) [12]: -0.503 | glycan array binding signal (z-score) [13]: 0.598 | glycan array binding signal (z-score) [14]: -0.453 | glycan array binding signal (z-score) [15]: -0.604 | glycan array binding signal (z-score) [16]: -0.169 | glycan array binding signal (z-score) [17]: 0.532 | glycan array binding signal (z-score) [18]: 0.043 | glycan array binding signal (z-score) [19]: 3.58 | glycan array binding signal (z-score) [20]: 0.309 | glycan array binding signal (z-score) [21]: 0.445 | glycan array binding signal (z-score) [22]: 4.86 | glycan array binding signal (z-score) [23]: -0.05 | glycan array binding signal (z-score) [24]: 1.65 | glycan array binding signal (z-score) [25]: 1.9 | glycan array binding signal (z-score) [26]: -0.487 | glycan array binding signal (z-score) [27]: -0.587 | glycan array binding signal (z-score) [28]: -0.501 | glycan array binding signal (z-score) [29]: 1.25 | glycan array binding signal (z-score) [30]: -0.526 | glycan array binding signal (z-score) [31]: -0.445 | glycan array binding signal (z-score) [32]: 0.575 | glycan array binding signal (z-score) [33]: -0.003 | glycan array binding signal (z-score) [34]: 0.138 | glycan array binding signal (z-score) [35]: -0.159 | glycan array binding signal (z-score) [36]: 0.25 | glycan array binding signal (z-score) [37]: -0.072

— the supplement of paper PMC8728848
